PubChem BioAssay AID1259308 | NCATS, 2017

- Purpose: 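Genes whose loss raises luciferase production in HEK293 cells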 (primary screen)
- Cells: human HEK293 embryonic kidney cells stably expressing firefly luciferase (HEK-CMV-Luc2-Hygro)
- Reagent: single siRNA against human genes, 0.8 pmol siRNA per well
- Duration: 72 h
- Measured: 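Luciferase light (ONE-Glo) measured on one replicate plate set and viability (CellTiter-Glo) on the other, scaled to a negative control siRNA, with robust z-scores and luciferase per cell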
- Reading the numbers: total luciferase, z-score: higher = more reporter protein produced
- Call rule: 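Active when the median/MAD z-score for overall luciferase is greater than 3; a gene was taken forward for validation with new siRNAs if at least two of its three siRNAs passed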
- Meaning of the calls: active = raised luciferase; inactive = no rise
The deposit covers about 59,000 reagents; shown is an unselected part. Of all reagents, about 1,510 (2.6%) got an active call. 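Calls use total luciferase alone and ignore viability, so some active siRNAs may act by altering cell number.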 The numbers tell different reagents against one gene apart. Further read-outs or replicates are left out here.

gene knocked down | siRNA no. | total luciferase, z-score | outcome
CCDC171 (GeneID 203238) | 1 | 1.42 | inactive
CCDC171 (GeneID 203238) | 2 | -1.74 | inactive
CCDC171 (GeneID 203238) | 3 | 0.811 | inactive
LINC01020 (GeneID 340094) | 1 | -1.32 | inactive
LINC01020 (GeneID 340094) | 2 | -0.966 | inactive
LINC01020 (GeneID 340094) | 3 | -0.259 | inactive
MIR2052HG (GeneID 441355) | 1 | 0.191 | inactive
MIR2052HG (GeneID 441355) | 2 | 0.778 | inactive
MIR2052HG (GeneID 441355) | 3 | 2.09 | inactive
SNRPD2 (GeneID 6633) | 1 | 2.1 | inactive
SNRPD2 (GeneID 6633) | 2 | 3.02 | active
SNRPD2 (GeneID 6633) | 3 | 3.22 | active
SLITRK3 (GeneID 22865) | 1 | -0.853 | inactive
SLITRK3 (GeneID 22865) | 2 | 0.83 | inactive
SLITRK3 (GeneID 22865) | 3 | -1.33 | inactive
FAM78B (GeneID 149297) | 1 | -0.857 | inactive
FAM78B (GeneID 149297) | 2 | -0.247 | inactive
FAM78B (GeneID 149297) | 3 | -1.5 | inactive
RFFL (GeneID 117584) | 1 | -2.05 | inactive
RFFL (GeneID 117584) | 2 | 0.215 | inactive
RFFL (GeneID 117584) | 3 | -0.98 | inactive
HSD3B7 (GeneID 80270) | 1 | -1.71 | inactive
HSD3B7 (GeneID 80270) | 2 | 2.78 | inactive
HSD3B7 (GeneID 80270) | 3 | 0.842 | inactive
